These are yes or no findings as the source states them, for the method shown. Binding seen in cells or lysates may run through a third protein. Some entries that bind do so weakly or less than the wild type. Tags and fused reporters may be left off the sequences shown.
Target: T1, Flag-tagged NUSAP1 full-length (nucleolar and spindle-associated protein 1) (human) (UniProt Q9BXS6)
T1 sequence: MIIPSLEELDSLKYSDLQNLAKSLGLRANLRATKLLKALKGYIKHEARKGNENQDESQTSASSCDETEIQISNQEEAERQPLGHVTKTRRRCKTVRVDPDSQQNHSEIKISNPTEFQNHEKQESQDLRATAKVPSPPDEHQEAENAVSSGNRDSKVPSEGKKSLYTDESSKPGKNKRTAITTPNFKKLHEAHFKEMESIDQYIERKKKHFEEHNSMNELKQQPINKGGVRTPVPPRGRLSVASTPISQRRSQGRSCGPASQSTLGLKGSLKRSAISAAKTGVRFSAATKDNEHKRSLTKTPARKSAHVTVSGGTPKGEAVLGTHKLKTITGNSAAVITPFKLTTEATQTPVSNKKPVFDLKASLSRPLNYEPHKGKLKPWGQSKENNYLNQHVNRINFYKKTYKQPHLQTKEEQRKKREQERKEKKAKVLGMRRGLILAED
Experiment: co-IP; extracts of LNCaP (and DU145) cells transfected with Flag-NUSAP1 (FL, ΔMT or ΔChHD) or empty vector, collected as for AP-MS; Ezview red Flag M2 affinity gel 4 h at 4 °C; elution with Flag peptide; western blot of endogenous partners

By UniProt entry, the sequences of proteins in these tests, tags left out.
UniProt Q12905: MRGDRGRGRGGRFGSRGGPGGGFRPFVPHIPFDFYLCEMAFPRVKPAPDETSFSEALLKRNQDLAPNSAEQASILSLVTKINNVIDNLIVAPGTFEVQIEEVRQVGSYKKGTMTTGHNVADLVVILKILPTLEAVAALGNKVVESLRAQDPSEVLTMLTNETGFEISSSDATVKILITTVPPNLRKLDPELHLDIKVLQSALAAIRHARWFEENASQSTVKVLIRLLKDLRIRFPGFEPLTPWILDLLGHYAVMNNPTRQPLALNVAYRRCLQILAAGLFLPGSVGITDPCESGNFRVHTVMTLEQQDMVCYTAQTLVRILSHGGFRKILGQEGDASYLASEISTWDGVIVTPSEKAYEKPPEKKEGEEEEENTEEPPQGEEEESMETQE

- binding: binds
Substance: ILF2 (from UniProt Q12905 1-390)

Source: publication PMC10093842
